This is an account of results in article PMC9800903.

By UniProt entry, the sequences of proteins in these tests, tags left out.
UniProt P47813: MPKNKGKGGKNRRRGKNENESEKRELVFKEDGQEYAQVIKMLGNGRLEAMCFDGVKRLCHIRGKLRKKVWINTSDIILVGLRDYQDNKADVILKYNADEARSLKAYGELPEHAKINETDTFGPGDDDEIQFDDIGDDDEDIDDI
UniProt O14980: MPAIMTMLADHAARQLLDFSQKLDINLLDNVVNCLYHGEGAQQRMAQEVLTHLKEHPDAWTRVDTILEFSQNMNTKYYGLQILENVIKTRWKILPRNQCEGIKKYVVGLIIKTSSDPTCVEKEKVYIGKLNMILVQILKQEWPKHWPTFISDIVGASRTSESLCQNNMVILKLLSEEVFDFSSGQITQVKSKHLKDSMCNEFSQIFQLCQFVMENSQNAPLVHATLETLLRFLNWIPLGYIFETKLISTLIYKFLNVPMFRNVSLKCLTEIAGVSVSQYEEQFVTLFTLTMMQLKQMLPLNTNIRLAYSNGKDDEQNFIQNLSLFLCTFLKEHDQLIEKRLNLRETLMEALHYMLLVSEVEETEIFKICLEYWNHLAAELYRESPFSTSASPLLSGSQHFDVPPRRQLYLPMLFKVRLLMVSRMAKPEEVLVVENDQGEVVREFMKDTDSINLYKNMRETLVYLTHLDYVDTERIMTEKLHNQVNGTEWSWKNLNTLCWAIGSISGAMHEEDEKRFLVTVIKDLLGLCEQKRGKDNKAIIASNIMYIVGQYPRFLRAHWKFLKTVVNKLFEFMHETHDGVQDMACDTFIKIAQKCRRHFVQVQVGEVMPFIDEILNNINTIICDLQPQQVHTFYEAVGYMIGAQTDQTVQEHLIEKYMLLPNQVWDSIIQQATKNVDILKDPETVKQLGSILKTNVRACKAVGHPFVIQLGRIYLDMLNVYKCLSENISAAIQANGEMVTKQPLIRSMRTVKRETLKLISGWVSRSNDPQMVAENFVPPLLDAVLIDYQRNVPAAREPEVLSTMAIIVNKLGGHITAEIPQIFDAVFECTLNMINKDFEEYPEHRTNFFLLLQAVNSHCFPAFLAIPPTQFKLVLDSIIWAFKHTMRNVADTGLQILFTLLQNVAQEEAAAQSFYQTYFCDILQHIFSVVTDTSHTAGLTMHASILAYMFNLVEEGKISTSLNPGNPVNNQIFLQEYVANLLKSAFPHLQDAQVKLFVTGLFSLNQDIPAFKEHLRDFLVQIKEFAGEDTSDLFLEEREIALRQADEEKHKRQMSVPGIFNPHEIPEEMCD

The target of this assay is Eukaryotic translation initiation factor 1A, X-linked (human (endogenous in HEC-1A)) (UniProt P47813). The assay can be described thus: co-IP; HEC-1A whole-cell lysates in RIPA lysis buffer with protease inhibitors; protein A or G magnetic beads prebound with anti-EIF1AX, anti-FLAG, anti-IPO13, anti-XPO1 or normal IgG control; western blotting.

No constants are given. Whether binding was seen depends on the method and setting. In cells and extracts the contact can be indirect. Some results given as binding are weak or reduced against the parent protein; the word gives no strength.

Turning to Exportin 1 (from UniProt O14980 1-1071), the binding result is reported as “binds”.
